Results from publication PMC11898301.
These are yes or no findings as the source states them, for the method shown. In cells and extracts the contact can be indirect. Some binding calls cover weakened binding; strength is not graded here. Where a sequence is shown, tags or fusion partners need not be part of it.

By UniProt entry, the sequences of proteins in these tests, tags left out.
UniProt Q969H0: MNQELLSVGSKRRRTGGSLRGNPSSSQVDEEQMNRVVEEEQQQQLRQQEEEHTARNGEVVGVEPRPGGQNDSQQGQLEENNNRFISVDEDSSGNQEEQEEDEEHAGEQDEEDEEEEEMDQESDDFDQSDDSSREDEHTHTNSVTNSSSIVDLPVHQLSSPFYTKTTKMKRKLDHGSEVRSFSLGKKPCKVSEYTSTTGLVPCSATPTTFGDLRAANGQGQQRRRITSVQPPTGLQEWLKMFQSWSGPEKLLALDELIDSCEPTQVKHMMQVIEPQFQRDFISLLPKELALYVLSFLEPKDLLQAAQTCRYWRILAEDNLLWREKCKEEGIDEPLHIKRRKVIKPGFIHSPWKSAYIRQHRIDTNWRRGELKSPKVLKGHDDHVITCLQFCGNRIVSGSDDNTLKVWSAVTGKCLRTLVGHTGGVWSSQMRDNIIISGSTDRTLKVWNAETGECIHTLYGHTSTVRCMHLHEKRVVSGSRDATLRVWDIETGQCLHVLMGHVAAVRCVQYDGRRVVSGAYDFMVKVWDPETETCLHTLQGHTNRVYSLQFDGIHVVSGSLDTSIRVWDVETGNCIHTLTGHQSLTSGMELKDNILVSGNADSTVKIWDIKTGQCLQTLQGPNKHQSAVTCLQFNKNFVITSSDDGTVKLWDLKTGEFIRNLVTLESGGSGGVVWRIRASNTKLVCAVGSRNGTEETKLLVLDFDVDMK

Biological target: T1, HA-PRR11-1Δ/2Δ (I286_S291del/L325_T330del) (human) (UniProt Q96HE9)
T1 sequence: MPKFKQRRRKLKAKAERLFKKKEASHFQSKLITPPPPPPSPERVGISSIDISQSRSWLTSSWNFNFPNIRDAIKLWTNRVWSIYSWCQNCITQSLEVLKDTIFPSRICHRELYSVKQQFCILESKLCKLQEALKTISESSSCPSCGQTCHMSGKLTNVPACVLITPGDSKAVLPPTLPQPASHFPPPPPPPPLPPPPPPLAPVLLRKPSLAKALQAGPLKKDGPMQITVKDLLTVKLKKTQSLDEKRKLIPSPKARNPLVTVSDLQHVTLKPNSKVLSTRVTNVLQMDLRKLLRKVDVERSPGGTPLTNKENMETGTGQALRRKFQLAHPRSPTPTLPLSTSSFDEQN
Assay: co-IP; 293T cells transfected with HA-PRR11 (WT, fragments or mutants) and Flag-GSK3β or Flag-FBXW7 (WT or mutants); MG132 10 μM for 6 h before collection; IP with HA or Flag antibody, Protein A/G magnetic beads, Western blot; in some panels λ-PPase added to extracts, CHIR-99021, siGSK3β or GSK3β overexpression

## Flag-FBXW7 (from UniProt Q969H0 1-707)
  binding: binds
